Results reported in US20030219813A1 (Takeda / Millennium, published 2003).
No constants are given. Whether binding was seen depends on the method and setting. For some of these results: In cells and extracts the contact can be indirect. Some results given as binding are weak or reduced against the parent protein; the word gives no strength.

By UniProt entry, the sequences of proteins in these tests, tags left out. Residues count along the entry.
UniProt Q9NRA1, residues 23-345: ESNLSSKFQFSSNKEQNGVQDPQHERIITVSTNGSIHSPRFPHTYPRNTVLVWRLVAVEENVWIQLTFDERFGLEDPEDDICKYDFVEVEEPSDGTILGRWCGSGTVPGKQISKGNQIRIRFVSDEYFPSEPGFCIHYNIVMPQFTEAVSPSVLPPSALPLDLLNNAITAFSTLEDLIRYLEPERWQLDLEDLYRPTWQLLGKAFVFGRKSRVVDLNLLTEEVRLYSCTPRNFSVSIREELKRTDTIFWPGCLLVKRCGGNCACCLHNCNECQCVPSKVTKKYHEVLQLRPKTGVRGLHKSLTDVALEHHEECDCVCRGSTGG

Key:
[1] = molecular target: SCUBE1.Myc (human SCUBE1 tagged with Myc at the C-terminus, endogenous signal peptide) (human) (UniProt Q8IWY4); assay: co-immunoprecipitation of detergent lysates, anti-Myc IP, anti-Flag M2 blot (FIG. 8b)
[2] = molecular target: SCUBE1.Myc (human SCUBE1 tagged with Myc at the C-terminus, endogenous signal peptide) (human) (UniProt Q8IWY4); assay: co-immunoprecipitation, anti-Myc IP, anti-Flag M2 blot (FIG. 8b)
[3] = molecular target: SCUBE1.Myc (human SCUBE1 tagged with Myc at the C-terminus, endogenous signal peptide) (human) (UniProt Q8IWY4); assay: co-immunoprecipitation from co-transfected cells (FIG. 8a)
[4] = molecular target: SCUBE1.Myc (human SCUBE1 tagged with Myc at the C-terminus, endogenous signal peptide) (human) (UniProt Q8IWY4); assay: co-immunoprecipitation and western blot from co-transfected 293T cells (FIG. 8a)
[5] = molecular target: PDGF-C (platelet-derived growth factor C) (UniProt Q9NRA1); assay: co-transfection in HEK-293 cells, analysis of cell lysates with antibodies

Molecule | binding [1] | binding [2] | binding [3] | binding [4] | binding [5]
Flag.SCUBE1-D1 (Flag-tagged deletion construct 1 of human SCUBE1, amino acids 26-789 of SEQ ID NO:2, CUB domain deleted) (from UniProt Q8IWY4 26-789) | binds | binds |  |  | 
Flag.SCUBE1-FL (Flag-tagged full-length human SCUBE1) (from UniProt Q8IWY4 23-988) | binds | binds | binds | binds | 
human SCUBE1 (SEQ ID NO:2) (other, glycosylated (N-linked, tunicamycin-sensitive), protein of 988 amino acids; also called Signal peptide-CUB-EGF-like domain-containing protein 1; recombinantly expressed SCUBE1) AGGSGLPGSVDVDECSEGTDDCHIDAICQNAPKSYKCLCKPGYKGEGKQCGDIDECENDYYNGGCVHECINIPGNYRCTCFDGFMLAHDGHNCLDVDECQDNNGGCQQICVNAMGSYECQCHSGFFLSDNQHTCIHRSNEGMNCMNKDHGCAHICRETPKGGVACDCRPGFDLAQNQKDCTLTCNYGNGGCQHSCEDTDTGPTCGCHQKYAPHSDGRTCIETCAVNNGGCDRTCKDTATGVRCSCPVGFTLQPDGKTCKDINECLVNNGGCDHFCRNTVGSFECGCRKGYKLLTDERTCQDIDECSFERTCDHICINSPGSFQCLCHRGYILYGTTHCGDVDECSMSNGSCDQGCVNTKGSYECVCPPGRRLHWNRKDCVETGKCLSRAKTSPRAQLSCSKAGGVESCFLSCPAHTLFVPDSENSYVLSCGVPGPQGKALQKRNGTSSGLGPSCSDAPTTPIKQKARFKIRDAKCHLRPHSQARAKETARQPLLDHCHVTFVTLKCDSSKKRRRGRKSPSKEVSHITAEFEIETKMEEASDTCEADCLRKRAEQSLQAAIKTLRKSIGRQQFYVQVSGTEYEVAQRPAKALEGQGACGAGQVLQDSKCVACGPGTHFGGELGQCVPCMPGTYQDMEGQLSCTPCPSSDGLGLPGARNVSECGGQCSPGFFSADGFKPCQACPVGTYQPEPGRTGCFPCGGGLLTKHEGTTSFQDCEAKVHCSPGHHYNTTTHRCIRCPVGTYQPEFGQNHCITCPGNTSTDFDGSTNVTHCKNQHCGGELGDYTGYIESPNYPGDYPANAECVWHIAPPPKRRILIVVPEIFLPIEDECGDVLVMRKSASPTSITTYETCQTYERPIAFTSRSRKLWIQFKSNEGNSGKGFQVPYVTYDEDYQQLIEDIVRDGRLYASENHQEILKDKKLIKALFDVLAHPQNYFKYTAQESKEMFPRSFIKLLRSKVSRFLRPYK |  |  |  |  | binds
